Two compounds from ChEMBL document CHEMBL6134832, “Expanding the utilization of binding pockets proves to be effective for noncovalent small molecule inhibitors against SARS-CoV-2 Mpro” (Eur J Med Chem, 2025) can be followed below.

Chains of the proteins cited; added tags and fusions are not shown. Lines headed by an entry give the natural chain unless they say otherwise; changes in a name come on top.
UniProt P08684: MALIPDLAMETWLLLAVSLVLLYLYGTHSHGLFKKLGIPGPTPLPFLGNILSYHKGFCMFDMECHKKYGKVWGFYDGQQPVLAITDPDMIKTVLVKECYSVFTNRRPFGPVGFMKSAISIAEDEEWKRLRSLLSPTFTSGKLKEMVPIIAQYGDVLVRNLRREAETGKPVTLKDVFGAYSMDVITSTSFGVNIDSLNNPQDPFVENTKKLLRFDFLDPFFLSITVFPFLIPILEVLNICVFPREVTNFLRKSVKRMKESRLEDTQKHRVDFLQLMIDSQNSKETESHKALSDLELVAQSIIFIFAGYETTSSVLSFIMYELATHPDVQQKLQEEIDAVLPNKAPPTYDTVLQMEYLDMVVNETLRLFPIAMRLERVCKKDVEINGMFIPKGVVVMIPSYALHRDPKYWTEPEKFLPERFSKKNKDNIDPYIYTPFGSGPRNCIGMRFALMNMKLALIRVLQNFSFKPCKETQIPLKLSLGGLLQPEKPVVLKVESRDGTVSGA
UniProt P20815: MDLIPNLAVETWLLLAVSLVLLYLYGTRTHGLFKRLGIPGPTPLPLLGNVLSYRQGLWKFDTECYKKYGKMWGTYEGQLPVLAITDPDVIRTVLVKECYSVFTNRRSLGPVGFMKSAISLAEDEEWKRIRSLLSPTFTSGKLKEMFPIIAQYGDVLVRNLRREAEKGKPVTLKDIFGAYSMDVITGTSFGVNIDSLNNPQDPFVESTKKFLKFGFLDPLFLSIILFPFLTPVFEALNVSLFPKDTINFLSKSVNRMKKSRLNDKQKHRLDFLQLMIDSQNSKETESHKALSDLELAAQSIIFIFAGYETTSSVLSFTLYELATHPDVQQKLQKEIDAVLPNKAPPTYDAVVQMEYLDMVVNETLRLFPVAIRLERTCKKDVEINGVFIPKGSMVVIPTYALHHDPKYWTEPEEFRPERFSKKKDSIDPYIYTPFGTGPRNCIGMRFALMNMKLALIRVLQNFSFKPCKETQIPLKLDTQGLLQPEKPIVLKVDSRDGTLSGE
UniProt Q12809: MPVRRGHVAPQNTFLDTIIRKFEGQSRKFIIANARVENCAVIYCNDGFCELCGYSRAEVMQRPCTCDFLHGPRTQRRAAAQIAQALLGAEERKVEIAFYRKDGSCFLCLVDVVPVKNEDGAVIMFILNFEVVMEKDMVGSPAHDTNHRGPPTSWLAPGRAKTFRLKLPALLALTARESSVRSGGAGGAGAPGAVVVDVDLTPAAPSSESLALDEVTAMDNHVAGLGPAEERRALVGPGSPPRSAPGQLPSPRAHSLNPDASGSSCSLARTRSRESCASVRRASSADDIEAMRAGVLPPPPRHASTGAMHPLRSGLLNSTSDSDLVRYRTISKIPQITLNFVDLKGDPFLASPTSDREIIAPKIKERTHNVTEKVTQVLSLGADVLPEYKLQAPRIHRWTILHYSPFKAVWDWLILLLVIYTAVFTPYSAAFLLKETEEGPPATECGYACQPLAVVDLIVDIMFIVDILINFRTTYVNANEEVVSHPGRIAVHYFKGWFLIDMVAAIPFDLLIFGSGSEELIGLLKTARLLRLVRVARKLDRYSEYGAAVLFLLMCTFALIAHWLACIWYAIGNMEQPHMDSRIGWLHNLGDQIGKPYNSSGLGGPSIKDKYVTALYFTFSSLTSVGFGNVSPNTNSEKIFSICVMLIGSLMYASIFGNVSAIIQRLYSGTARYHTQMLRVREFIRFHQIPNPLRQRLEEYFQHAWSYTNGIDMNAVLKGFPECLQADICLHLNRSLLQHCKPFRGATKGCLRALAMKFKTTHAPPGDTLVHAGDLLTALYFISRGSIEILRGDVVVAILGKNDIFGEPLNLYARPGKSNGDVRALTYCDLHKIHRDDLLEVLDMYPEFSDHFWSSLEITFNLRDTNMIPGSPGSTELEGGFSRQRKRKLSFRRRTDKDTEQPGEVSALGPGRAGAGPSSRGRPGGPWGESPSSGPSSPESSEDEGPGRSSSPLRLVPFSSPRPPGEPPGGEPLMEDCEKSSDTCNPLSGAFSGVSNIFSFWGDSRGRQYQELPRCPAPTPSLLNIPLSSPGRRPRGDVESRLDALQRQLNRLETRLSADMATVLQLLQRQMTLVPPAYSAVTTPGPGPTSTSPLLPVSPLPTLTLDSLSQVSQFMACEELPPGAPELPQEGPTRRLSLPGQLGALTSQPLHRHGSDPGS

One data set addresses CYP3A4/CYP3A5 (Homo sapiens, UniProt P08684+P20815). In words: Inhibition of CYP3A4/CYP3A5 (unknown origin).
In data set [1] the target is Voltage-gated inwardly rectifying potassium channel KCNH2 (Homo sapiens, UniProt Q12809).

By IC50 is commonly meant the concentration at which inhibition is half-maximal. Read a low IC50 as greater potency in that assay. In the case of `Cn1cc2cc(/N=c3\[nH]c(=O)n(-c4cccnc4)c(=O)n3Cc3cc(F)c(F)cc3F)c(Cl)cc2n1`, the IC50 on CYP3A4/CYP3A5 was 35.6 µM; in data set [1], over 30 µM.
On to `Cn1cc2cc(/N=c3\[nH]c(=O)n(-c4cncc(O[C@H]5CCOC5)c4)c(=O)n3Cc3cc(F)c(F)cc3F)c(Cl)cc2n1`, for which the IC50 against CYP3A4/CYP3A5 was over 50 µM; in data set [1], over 30 µM.
